Assay results reported in PubChem BioAssay AID540336 (Broad Institute, 2011).
Screen size: about 330,000 compounds; about 520 (0.16%) were called active. This list was built around the results that the source calls inconclusive (neither active nor inactive); the mix of calls is not that of the screen.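 How the source made its calls: active means inhibition of at least 50% in every replicate; inconclusive means best replicate reaches 50% inhibition but some replicates fall short; inactive means the rest.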 Where a structure was tested more than once in an assay, its records may differ in their call.

Amino acid sequences for entries named in this document (tags omitted).
UniProt Q5AAJ8, whole entry, looked up: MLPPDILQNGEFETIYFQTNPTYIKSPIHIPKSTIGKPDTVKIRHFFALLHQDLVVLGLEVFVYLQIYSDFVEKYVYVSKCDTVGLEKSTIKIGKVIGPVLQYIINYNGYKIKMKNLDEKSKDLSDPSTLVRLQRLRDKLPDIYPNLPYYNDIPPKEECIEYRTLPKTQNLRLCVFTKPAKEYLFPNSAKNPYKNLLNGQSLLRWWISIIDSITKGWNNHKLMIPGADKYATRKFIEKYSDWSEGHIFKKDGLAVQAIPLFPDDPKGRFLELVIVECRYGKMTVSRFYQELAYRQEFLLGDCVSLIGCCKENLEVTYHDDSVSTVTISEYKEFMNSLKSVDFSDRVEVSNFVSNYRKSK

These molecules were tested against Histone acetyltransferase RTT109 (Candida albicans (strain SC5314 / ATCC MYA-2876)) (UniProt Q5AAJ8) (assay: Rtt109-Vps75 histone acetyltransferase blockade – biochemical, ThioGlo CoA-SH fluorescence, plate reader, primary screen (AID 540336)). Details: purified Rtt109/Vps75, ThioGlo CoA-SH fluorescence, 4 h; at 34.9 µM; hits give high values.

Structure (SMILES) | inhibition
CCN(CC)CCNCC(=O)Nc1ccc(Cl)cc1C(=O)c1ccccc1 | inconclusive: 42.8%
Cc1c(N=Nc2c(O)n(Cc3ccccc3)c(=O)[nH]c2=O)c(=O)n(-c2ccccc2)n1C | inactive: 10.5%
Cn1c(O)c(C2=NNC(c3ccc(Cl)cc3)C2)c(=O)n(C)c1=O (configuration not stated) | inconclusive: 38.2%
COC(=O)CC1(Cc2ccccc2)C(=O)NC(=O)NC1=O | inactive: -2.3%
CCN(CC)c1ccc(N=Cc2c(O)n(-c3ccccc3)c(=O)[nH]c2=O)cc1 | inactive: 4.46%
Cc1ccc(-c2cc(-c3ccc(C)cc3)[n+](-c3ccccc3)c(-c3ccc(C)cc3)c2)cc1 | inconclusive: 51.8%
Cc1cc(NCCN)nc2ccccc12 | inconclusive: 23%
O=C1NC(=O)N(CCc2ccc(F)cc2)C(=O)/C1=C/c1ccco1 | inconclusive: 54%
Cc1ccc(-c2nc(N(C)C3CCN(C)CC3)c3ccccc3n2)cc1 | inconclusive: 41.9%
C=C1C(=O)O[C@H]2[C@H]1[C@H](OC(=O)CC(=O)O[C@@H]1C[C@@H](C)[C@@H]3C=CC(=O)[C@@]3(C)[C@H]3OC(=O)C(=C)[C@H]13)C[C@@H](C)[C@H]1C=CC(=O)[C@]12C | inconclusive: 31.4%
O=[N+]([O-])c1c2ccccc2cc2ccccc12 | inactive: 16.3%
O=C(O)Cn1cc(C(=O)c2ccccc2F)c2ccccc21 | inactive: 0.153%
CC1CCC(C(C)C)C(OC(=O)Cn2c(COc3ccccc3)[n+](C)c3ccccc32)C1 (configuration not stated) | inconclusive: 37.8%
O=c1[nH]c(O)c(/C=C2\C=Nc3ccc(OCc4ccccc4)cc32)c(=O)[nH]1 | inactive: -0.506%
O=C1NC(=O)N(Cc2ccc(F)cc2)C(=O)/C1=C/c1cccs1 | inconclusive: 49.1%
CCN1CCN(Cc2ccccc2C)CC1 | inactive: -4.11%
CN(C)C(=S)SSC(=S)N(C)C | active: 154%
C[N+](C)(C)CC1CCCC(C[N+](C)(C)C)C1=O (configuration not stated) | inactive: -17.3%
Cc1ccc(N2C(=O)NC(=O)/C(=C\c3cnc(-c4ccccc4)nc3)C2=O)cc1 | inactive: 5.54%
CCCCCCCSc1cc(OC)c(CCN(C)C)cc1OC | inconclusive: 43%
Cc1cc(C)cc(NC(=S)NC2CC3CCCC(C2)N3Cc2cccs2)c1 (configuration not stated) | inconclusive: 53.9%
O=C1NC(=O)C(Sc2ccccc2[N+](=O)[O-])C(=O)N1 | active: 86.1%
O=C(O)c1cccc2c1NC(C(=O)O)C1CC(Sc3ccccc3[N+](=O)[O-])C(Cl)C21 (configuration not stated) | active: 59.7%

Structure (SMILES) | inhibition
C=C1[C@@H](C)[C@H]2[C@H](Cc3ccccc3)NC(=O)[C@]23OC(=O)/C=C/[C@H](O)CCC[C@@H](C)C/C=C/[C@H]3[C@@H]1O | inactive: 0.688%
O=C(Nc1ccc(F)cc1)c1c(O)c2c(n(Cc3ccccc3)c1=O)CCCC2 | active: 50.2%
CC(=O)N1N=C(c2c(O)n(C)c(=O)n(C)c2=O)CC1c1ccccc1 (configuration not stated) | inactive: -6.8%
CN1CCC(N(C)c2nc(-c3ccc([N+](=O)[O-])cc3)nc3ccccc23)CC1 | inconclusive: 53.9%
O=C(NC1CCCCC1)Oc1cc2oc(=O)sc2cc1Cl | active: 89.5%
CN1C(C(=O)N2CCC3(CC2)OCCO3)=CC(c2ccc(F)cc2)=NS1(=O)=O | inactive: -1.99%
COC(C)(C)CCCC(C)C/C=C/C(C)=C/C(=O)OC(C)C (configuration not stated) | inconclusive: 31.9%
C/C=C1/C[N+]2(C)CCC34C(=C(C=O)[C@H]1C[C@@H]32)Nc1ccccc14 (some centres not stated) | inactive: -8.56%
COc1ccc(N/N=C/c2c(O)n(-c3cccc(C)c3)c(=O)[nH]c2=O)cc1 | inactive: 21.2%
c1ccc(C(OCCN2CCN(c3ncccn3)CC2)c2ccccc2)cc1 | inactive: -8.45%
CCCCCCCSc1cc(OC)c(CCNC)cc1OC | inconclusive: 60.1%
Cc1ccc(/C=C2\C(=O)NC(=S)N(c3ccc(F)cc3)C2=O)o1 | inconclusive: 21.5%
CCCCN1C(=O)/C(=C/c2ccc(N(C)C)cc2)C(=O)N(Cc2ccco2)C1=O | inactive: -3.04%
CCCC(CCC)C(=O)OC[N+](C)(C)CCOC(=O)C(O)(c1ccccc1)C1CCCC1 (configuration not stated) | active: 56.7%
Oc1ccc(Cl)cc1Cc1ccccc1 | inconclusive: 28.1%
CC/C(=N\Nc1ccccc1)c1c(O)n(C)c(=O)n(C)c1=O | inactive: -0.253%
Cc1cnc(-n2c(=S)[nH]c3ccccc3c2=O)s1 | inconclusive: 29.1%
CN(C)c1ccc(-[n+]2c(-c3ccccc3)cc(-c3ccccc3)cc2-c2ccccc2)cc1 | inconclusive: 33.8%
CC(=O)c1ccc2c(c1)C1C(Cl)C(Sc3ccccc3[N+](=O)[O-])CC1C(C(=O)O)N2 (configuration not stated) | inactive: -0.555%
Nc1ccc(CC2=NCCN2)cc1 | inactive: -1.17%
Clc1ccc(COC(Cn2ccnc2)c2ccc(Cl)cc2Cl)cc1 (configuration not stated) | active: 74%
CCN(CC)c1ccc(/C=C2\C(=O)NC(=S)N(C)C2=O)o1 | inactive: -7.93%
CSc1ncc(/C=C2/C(=O)NC(=O)N(c3ccc(Cl)cc3)C2=O)cn1 | active: 63.7%

Structure (SMILES) | inhibition
CC(NC(=O)N1CC1(C)C)c1ccccc1 (configuration not stated) | inactive: -9.65%
O=c1c2ccccc2[se]n1-c1ccccc1 | inconclusive: 108%
Cc1cc(/C=C2/C(=O)NC(=O)N(Cc3ccco3)C2=O)c(C)n1-c1ccccc1O | inconclusive: 38.5%
CC(C)COc1ccc(Cc2c(O)[nH]c(=S)[nH]c2=O)cc1 | inconclusive: 26%
CN(Cc1ccccc1)C(=O)CN1CCCC1=O | inconclusive: 20.5%
C=C(COC(=O)CCC(=O)O)CC1CC(O)[C@]2(C)OC3CC4OC5C[C@]6(C)O[C@]7(C)CCC8OC9C[C@]%10(C)OC%11C(C)=CC(=O)OC%11CC%10OC9C[C@@H](C)C8OC7CC6O[C@]5(C)C/C=C\C4OC3CC2O1 (some centres not stated) | inconclusive: 38.8%
O=C1NC(=O)C(=Cc2cc3c(cc2[N+](=O)[O-])OCO3)C(=O)N1 | active: 73.6%
O=c1[nH]c(=S)n(-c2ccc(Cl)cc2)c(O)c1C=Nc1ccc(N2CCOCC2)cc1 | inconclusive: 34.2%
CCCCCn1c(=O)c(C(=O)Nc2nc3ccccc3[nH]2)c(O)c2ccccc21 | inconclusive: 28.8%
Cc1ccc(/C=C2\C(=O)NC(=O)N(CC3CCCO3)C2=O)s1 (configuration not stated) | inconclusive: 49.4%
CCCCc1nc(N2CCNCC2)c(C#N)c2c1CSC(C)(C)C2 | inactive: -6.76%
C[C@]12CCC3=C4CCC(=O)C=C4CC[C@H]3C1CC[C@@H]2O (some centres not stated) | inactive: 2.48%
O=P1(NCCCn2cc[n+](Cc3nc4ccccc4[nH]3)c2)C=C(c2ccccc2)OC(c2ccccc2)=C1 | inconclusive: 35.4%
C[C@]12CC[C@@H]3c4ccc(O)c(O)c4CC[C@H]3[C@@H]1CC[C@@H]2O | active: 132%
COc1ccc(OCC(=O)N2CCN(Cc3ccc4c(c3)OCO4)CC2)cc1 | inactive: 5.9%
CCOc1ccc(N)cc1 | inconclusive: 17.1%
COc1cccc(N2C(=O)NC(=O)/C(=C\c3ccc([N+](=O)[O-])s3)C2=O)c1 | inconclusive: 30.6%
N[C@@H](Cc1c[nH]c2ccccc12)c1nnc(SCc2ccc(Cl)cc2)o1 | inconclusive: 36.7%
O=C1CC2OCC=C3CN4CCC56c7cc([N+](=O)[O-])ccc7N1C5C2C3CC46 (configuration not stated) | inactive: 1.28%
COc1ccc(C=C2C(=O)NC(=S)NC2=O)cc1OC | inactive: 0.0938%
Cc1c2cnn(CC(=O)N3CCC4(CC3)OCCO4)c(=O)c2c(C)n1Cc1cccc(Cl)c1 | inactive: 0.96%

Some values from above:
Value for O=P1(NCCCn2cc[n+](Cc3nc4ccccc4[nH]3)c2)C=C(c2ccccc2)OC(c2ccccc2)=C1 under inhibition: inconclusive: 35.4%
Value for CN(Cc1ccccc1)C(=O)CN1CCCC1=O under inhibition: inconclusive: 20.5%
Value for O=C1NC(=O)C(=Cc2cc3c(cc2[N+](=O)[O-])OCO3)C(=O)N1 under inhibition: active: 73.6%
